Residues, ends and D or L forms follow the SMILES beside them.
Experiment: Preparation of film from sheet-shaped gel
Assay type: physicochemical
Method: Into a screw tube (Maruemu No. 3, manufactured by Maruemu Corp.), 3 mg of N-palmitoyl-Gly-His.TFA salt prepared in Example 1 was placed. Into the screw tube, 0.6 ml of Japanese Pharmacopoeia purified water (Kyoei Pharmaceutical Industries, Ltd.) was added so as to have a concentration of 0.5% (w/v). The whole was heated at 105° C. for 5 minutes, and then allowed to stand at room temperature to prepare a gel of 0.5% N-palmitoyl-Gly-His.TFA salt.
Into the gel, 2 ml of Japanese Pharmacopoeia purified water (Kyoei Pharmaceutical Industries, Ltd.) was further added and sheet formation was observed from a wide view for 72 hours.
Using 10 mg of free N-palmitoyl-Gly-His, each 2.0 mL of 30%, 20%, and 10% glycerin aqueous solutions was added so as to become a 0.5% (w/v) solution, and the mixture solution was heated and dissolved at 80° C. The solution was placed in a glass petri dish having an inner diameter of 2.2 cm and allowed to cool at room temperature. […] Then, the obtained gel was transferred onto a glass substrate.

CCCCCCCCCCCCCCCC(=O)NCC(=O)N[C@@H](Cc1c[nH]cn1)C(=O)O.O=C(O)C(F)(F)F [Example 1, N-palmitoyl-Gly-His.TFA salt] (HELM PEPTIDE1{[CCCCCCCCCCCCCCCC(=O)[*:2]].G.H}$$$$V2.0)
Film formation from gel sheet (0.5% (w/v) gel sheet in water, on glass substrate, desiccator for over ten days): a film of N-palmitoyl-Gly-His.TFA salt was prepared

CCCCCCCCCCCCCCCC(=O)NCC(=O)N[C@@H](Cc1c[nH]cn1)C(=O)O [Example 4, N-Palmitoyl-Gly-His] (HELM PEPTIDE1{[CCCCCCCCCCCCCCCC(=O)[*:2]].G.H}$$$$V2.0)
Film formation from sheet-shaped gel (0.5% (w/v) gels in 30%, 20% and 10% glycerin aqueous solutions, desiccator for 10 days): a film of free N-palmitoyl-Gly-His containing glycerin was prepared from each gel

Source: patent publication US9289496B2, “Lipid dipeptide and gel” (Nissan Chemical Industries, Ltd., priority 2008, dated 2016)
